Laboratory results: PubChem BioAssay AID540256 (National Center for Advancing Translational Sciences (NCATS), 2011)
Out of some 300,000 compounds screened, about 3,700 (1.2%) were called active. The shares of active, inactive and inconclusive entries below differ from those in the screen. The call rests on the fitted dose curve; tested in HEK293 cells. Potencies beside an inconclusive call are fits to weak or partial responses and may not hold up.
On the % scale 0 is the no-effect control and ±100 the full control effect; potency means the concentration at half of the fitted maximal effect.

Assay: qHTS for Inhibitors of binding or entry into cells for Lassa Virus; further: nearly all actives have a fitted effect of over 50% in size
Details: Lassa virus pseudotype entry inhibition, cell reporter; activity change, negative = inhibition: at 37.9 µM (top of the series) unless noted
For `O=C(Nc1ccc(F)cc1F)c1ccc(-n2cccn2)nc1`, the “activity change, negative = inhibition” value was inactive: 0.452%. In the case of `C=CCN(c1ccccc1)S(=O)(=O)c1cccc(C(=O)Nc2ccc(N3CCOCC3)cc2)c1`, the Potency is reported as inconclusive: 35.5 µM [inhibitor, single point]. In the case of `C=CCn1c(SCc2cc(=O)n3ccsc3n2)nnc1C1CCCCC1`, the Potency is reported as inconclusive: 20.6 µM [activator, partial curve, poor fit]. With `O=C(c1ccc(S(=O)(=O)Cc2ccccc2F)c([N+](=O)[O-])c1)N1CCCCCC1` the “activity change, negative = inhibition” value was inactive: -8.8%. In the case of `Cc1cc(C)c2c(c1)NC(c1cc3c(cc1Br)OCO3)C1CC=CC21` (stereo unspecified), the Potency is reported as inconclusive: 10 µM [inhibitor, partial curve, poor fit]. In the case of `COc1ccc(OC)c(Nc2c3ccccc3nc3ccccc23)c1`, the Potency is reported as inconclusive: 14.1 µM [inhibitor, partial curve, poor fit]. With `COc1cc(/C=N/N=C(N)N)ccc1OCc1ccc(Cl)cc1` the Potency was inconclusive: 29.1 µM [inhibitor, single point]. With `COc1ccc(OC)c(-n2cc3c(=O)n(C)c(=O)n(C)c3c2)c1` the Potency was inconclusive: 3.98 µM [inhibitor, partial curve, poor fit]. For `O=C1C(Cl)=C(NC2CCCCC2)C(=O)N1c1ccc(Cl)cc1`, the “activity change, negative = inhibition” value was inactive: 2.13%. In the case of `CCNC(=S)N=Nc1c(O)n(Cc2ccc(Cl)cc2)c2ccccc12`, the Potency is reported as inconclusive: 0.891 µM [inhibitor, single point]. For `O=[N+]([O-])c1cc(-c2nc(-c3ccccc3)no2)ccc1NCc1ccco1`, the Potency was inconclusive: 7.08 µM [inhibitor, partial curve, poor fit]. With `Cc1ccc(C(=O)N2CCN(S(=O)(=O)c3ccccc3)CC2)s1` the Potency was inconclusive: 11.2 µM [activator, partial curve, poor fit]. With `Cc1ccc(NS(=O)(=O)c2ccc(C(=O)NCc3cccnc3)cc2)cc1` the “activity change, negative = inhibition” value was inactive: -11.3%. For `COc1ccc(C(=O)/C=C/c2cn(CC(O)CN3CCCCCC3)c3ccccc23)cc1OC` (stereo unspecified), the Potency was inconclusive: 35.5 µM [inhibitor, single point]. For `CCN(CC)c1ccc(/C=N/NC(=O)c2ccc3nc[nH]c3c2)cc1`, the “activity change, negative = inhibition” value was inactive: -6.18% [at 46.1 µM]. For `CCc1ccc(C(=O)NCc2ccc(Cl)cc2Cl)cc1`, the “activity change, negative = inhibition” value was inactive: 1.2%. For `COCCCNC(=O)c1c(NC(=O)Cc2coc3cc(C)ccc23)sc2c1CCCC2`, the Potency was inconclusive: 6.31 µM [inhibitor, full curve, poor fit]. For `CC(C)(C)c1ccc(C(=O)NCCC(=O)N2CCCC2)cc1`, the Potency was inconclusive: 35.5 µM [inhibitor, single point]. With `COc1ccc(C(=O)/C=C/Sc2nc3ccccc3o2)cc1` the “activity change, negative = inhibition” value was inactive: -1.67% [at 46.1 µM]. In the case of `CC1CC(C)CN(c2ccc([N+](=O)[O-])cc2-c2nn[nH]n2)C1` (stereo unspecified), the Potency is reported as inconclusive: 1.26 µM [activator, single point]. For `Cc1oc(-c2ccccc2)nc1C(=O)N1CCN(c2ccc(F)cc2)CC1`, the Potency was inconclusive: 1.26 µM [inhibitor, single point]. With `COc1ccc(NC(=O)COC(=O)CC2CCCC2)cc1Cl` the Potency was inconclusive: 3.98 µM [activator, full curve, poor fit]. For `N#Cc1cccc(NC(=O)COC(=O)C2CCC2)c1`, the “activity change, negative = inhibition” value was inactive: 4.99%. In the case of `CN1CCN(Cc2cn(C)nc2-c2ccccc2F)CC1c1ccccc1` (stereo unspecified), the Potency is reported as inconclusive: 6.31 µM [inhibitor, single point]. With `COC(=O)CC1(c2cccc3ccccc23)C(=O)c2ccccc2C1=O` the Potency was inconclusive: 35.5 µM [inhibitor, single point]. For `CCN(CC)c1ccc(C(=O)NNC(=O)CNC(=O)c2ccco2)cc1`, the “activity change, negative = inhibition” value was inactive: -2.6% [at 46.1 µM]. In the case of `O=C(CCCCn1cnc2c(=S)nc[nH]c21)Nc1ccc(C(=O)O)cc1`, the Potency is reported as inconclusive: 0.631 µM [inhibitor, full curve, poor fit]. With `O=C(CNc1ccccc1)N/N=C/c1c[nH]c2ccccc12` the Potency was inconclusive: 20.6 µM [inhibitor, single point]. In the case of `O=C(O)c1cccc(NC(=O)c2ccc(S(=O)(=O)c3ccccc3)cc2)c1`, the “activity change, negative = inhibition” value is reported as inactive: 5.32%. For `O=[N+]([O-])c1nn(-c2ccc(Cl)cc2)n(O)c1=NCc1cccnc1`, the “activity change, negative = inhibition” value was inactive: 1.21%. In the case of `COc1cccc(NC(=O)c2ccc3c(c2)N(CC(=O)N2CCOCC2)C(=O)C(C)(C)O3)c1`, the Potency is reported as inconclusive: 1.58 µM [inhibitor, full curve, poor fit]. For `CC1CCN(S(=O)(=O)c2ccc3c(c2)N(CC(=O)NCCCOC(C)C)C(=O)CO3)CC1`, the “activity change, negative = inhibition” value was inactive: 1.44% [at 46.1 µM]. In the case of `Cc1ccc(CNC(=O)/C=C/c2ccc(S(=O)(=O)NCc3ccco3)cc2)cc1`, the Potency is reported as inconclusive: 9.2 µM [inhibitor, partial curve, poor fit]. In the case of `CCC1=NN2C(=N)/C(=C\c3cccn3-c3cccc(Cl)c3)C(=O)N=C2S1`, the Potency is reported as inconclusive: 11.2 µM [inhibitor, partial curve, poor fit]. With `Cc1sc(C2C(C#N)=C(N)N(c3ccc(Cl)cc3)C3=C2C(=O)CCC3)cc1CN1CCOCC1` (stereo unspecified) the Potency was inconclusive: 17.8 µM [inhibitor, single point]. With `COc1ccc(C(C(=O)NC2CCCC2)N(Cc2ccccc2)C(=O)c2nsc(Cl)c2Cl)cc1` (stereo unspecified) the Potency was inconclusive: 18.3 µM [inhibitor, partial curve, poor fit]. With `Nc1cc(N)nc(SCc2ccccc2)n1` the Potency was inconclusive: 3.66 µM [activator, partial curve, poor fit]. In the case of `COc1ccccc1NC(=O)CSc1nc(C)c2c(c1C#N)CCCC2`, the “activity change, negative = inhibition” value is reported as inactive: 0.719%. With `Cn1cc(/C=C2/SC(=O)N(CC(=O)Nc3ccc4c(c3)OCO4)C2=O)c2ccccc21` the Potency was inconclusive: 16.4 µM [inhibitor, single point]. With `C=CCn1c(=O)c(C(=O)Nc2ccccc2C)c(O)c2ccccc21` the Potency was inconclusive: 0.891 µM [activator, full curve, poor fit]. With `O=C(CN1CCN(Cc2ccc(F)cc2)C1=O)NCc1ccc(F)cc1` the Potency was inconclusive: 10 µM [activator, partial curve, poor fit]. With `Cn1c(=O)n(C)c2cc(NS(=O)(=O)c3ccc(Br)s3)ccc21` the “activity change, negative = inhibition” value was inactive: 0.89% [at 46.1 µM]. In the case of `CC(C)CCOc1cccc(OCC(=O)NC2CCS(=O)(=O)C2)c1` (stereo unspecified), the Potency is reported as inconclusive: 29.1 µM [inhibitor, single point]. With `CCOC(=O)Cn1c(CN(C)Cc2ccccc2)nc2c1c(=O)n(C)c(=O)n2C` the “activity change, negative = inhibition” value was inactive: 0.873%. For `Cc1ccc(C2CC(=O)N(Cc3ccc(F)cc3)c3c2c(C)nn3-c2nc(C)cc(C)n2)cc1` (stereo unspecified), the “activity change, negative = inhibition” value was inactive: 2.54% [at 46.1 µM]. In the case of `Cc1cccn2c(=O)nc(SCC(=O)N3N=C(c4cccs4)CC3c3ccc(F)cc3)nc12` (stereo unspecified), the Potency is reported as inconclusive: 17.8 µM [inhibitor, single point]. For `O=C1NC(=O)/C(=C/c2ccccc2Cl)N1`, the “activity change, negative = inhibition” value was inactive: 22.1% [at 46.1 µM]. With `COC(=O)C1=C(C)N(CCc2ccc(OC)c(OC)c2)C(=O)/C1=C\c1ccc(O)cc1` the Potency was inconclusive: 10 µM [inhibitor, partial curve, poor fit]. For `Cc1ccccc1Cn1c(CN2CCc3ccccc3C2)nc2c1c(=O)n(C)c(=O)n2C`, the Potency was inconclusive: 32.6 µM [inhibitor, single point]. For `Nn1c(SCC(=O)Nc2ccc(F)c(F)c2)nnc1C1CCCCC1`, the “activity change, negative = inhibition” value was inactive: 3.95%. For `C#CCN1C(=O)S/C(=C/c2cc(C)n(CC)c2C)C1=O`, the Potency was inconclusive: 1.26 µM [activator, single point]. With `COc1ccc(CN=C(N)N=C(N)N)cc1Cl` the Potency was inconclusive: 35.5 µM [inhibitor, partial curve, poor fit]. For `COc1ccccc1CNCC(O)(c1ccc(Cl)cc1)c1ccc(Cl)cc1`, the Potency was inconclusive: 29.1 µM [inhibitor, single point]. With `O=C(c1ccccc1)c1ccc2nc(N3CCCCC3)c3nncn3c2c1` the Potency was inconclusive: 2.06 µM [inhibitor, full curve, poor fit]. With `C=CCN=C1NC(c2cccc(C(F)(F)F)c2)C(C(=O)OC)=C(C)N1Cc1ccccc1` (stereo unspecified) the Potency was inconclusive: 0.168 µM [inhibitor, partial curve, poor fit]. For `O=C1c2ccccc2CN1CCSC(=S)N1CCOCC1`, the Potency was inconclusive: 0.259 µM [activator, full curve, poor fit]. In the case of `COc1ccc(C2CC(c3ccc(F)cc3)=NN2c2ccccc2)cc1OC` (stereo unspecified), the Potency is reported as inconclusive: 0.501 µM [inhibitor, single point]. For `Cc1ccccc1C(=O)Nc1cccc(NC(=O)c2ccc(C(C)(C)C)cc2)c1`, the Potency was inconclusive: 35.5 µM [inhibitor, single point]. With `CCc1ccc(Nc2c([N+](=O)[O-])c(=O)oc3ccccc23)cc1` the Potency was inconclusive: 7.08 µM [inhibitor, partial curve, poor fit]. For `CCOc1cc(/C=N/NC(=O)c2cccc([N+](=O)[O-])c2)ccc1OS(=O)(=O)c1ccccc1`, the Potency was inconclusive: 29.1 µM [inhibitor, single point]. In the case of `COc1ccc(C(=O)NCc2nnc(SCC(=O)Nc3cc(C)on3)o2)cc1OC`, the Potency is reported as inconclusive: 2.82 µM [inhibitor, single point]. In the case of `CCC(C(=O)NC1CCCCC1)n1c(SCc2ccccc2F)nc2ccncc21` (stereo unspecified), the Potency is reported as “inactive”. With `COCCNC(=O)CN1C(=O)COc2ccc(S(=O)(=O)N3CCCCCC3)cc21` the “activity change, negative = inhibition” value was inactive: 3.24% [at 46.1 µM]. For `COc1ccc(NS(=O)(=O)c2cccc(C(=O)NCC(c3ccc(OC)cc3)N3CCOCC3)c2)cc1` (stereo unspecified), the Potency was inconclusive: 11.2 µM [inhibitor, partial curve, poor fit]. In the case of `Cc1ccn2cc(-c3cccc(S(=O)(=O)N4CCCC4)c3)nc2c1`, the Potency is reported as inconclusive: 20 µM [inhibitor, single point]. In the case of `Cc1ccc2nc(-c3ccccc3Cl)cc(C(=O)Nc3cc(C)on3)c2c1`, the “activity change, negative = inhibition” value is reported as inactive: -13.4%.
